In the supplement of paper PMC4604168 (melanoma cell lines):
Some of the results follow. Repeats are few or missing, and single values can be far off.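 Cells were imaged in 1,536-well plates, and nuclei stained with an antibody against cleaved PARP were counted against all DNA-stained nuclei to give the apoptosis fraction. Screening doses were chosen to leave most cells alive, and resting and induced cleaved-PARP levels differ strongly between cell lines.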

test system: C32; assay: cleaved PARP positive nuclei fraction relative to DMSO control; melanoma cells; higher = more apoptosis; conditions: library dose: low library concentration; 72 h

Compound | cleaved PARP positive nuclei fraction
CCCS(=O)(=O)Nc1ccc(F)c(C(=O)c2c[nH]c3ncc(Cl)cc23)c1F + Oc1nc(-c2ccc(C(F)(F)F)cc2)nc2c1CSCC2 [XAV939] (first compound 0.08 µM, partner dose 2 µM) | 169%
Nc1nc(F)nc2c1ncn2[C@@H]1O[C@H](CO)[C@@H](O)[C@@H]1O [fludarabine] + COc1ccc(-c2ccc3c(N4CCOCC4)nc(N4C[C@@H](C)O[C@@H](C)C4)nc3n2)cc1CO [KU0063794] (first compound 0.2 µM, partner dose 0.02 µM) | 309%
CS(=O)(=O)CCNCc1ccc(-c2ccc3ncnc(Nc4ccc(OCc5cccc(F)c5)c(Cl)c4)c3c2)o1 [lapatinib] + O=C(Nc1ccccc1)c1cc([N+](=O)[O-])ccc1Cl [GW9662] (first compound 0.8 µM, partner dose 2 µM) | 125%
C=C(c1ccc(C(=O)O)cc1)c1cc2c(cc1C)C(C)(C)CCC2(C)C [Bexarotene] + CCc1ccc(CCOc2ccc(CC3SC(=O)NC3=O)cc2)nc1 [pioglitazone] (first compound 2 µM, partner dose 2 µM) | 158%
C=C(c1ccc(C(=O)O)cc1)c1cc2c(cc1C)C(C)(C)CCC2(C)C [Bexarotene] + c1cc(-c2cnn3cc(-c4ccc(OCCN5CCCCC5)cc4)cnc23)ccn1 [Dorsomorphin] (first compound 2 µM, partner dose 0.4 µM) | 50.3%
CS(=O)(=O)CCNCc1ccc(-c2ccc3ncnc(Nc4ccc(OCc5cccc(F)c5)c(Cl)c4)c3c2)o1 [lapatinib] + COc1cc(N2CCC(N3CCN(C)CC3)CC2)ccc1Nc1ncc(Cl)c(Nc2ccccc2S(=O)(=O)C(C)C)n1 [NVP-TAE684] (first compound 0.8 µM, partner dose 0.08 µM) | 40.2%
CNC(=O)c1cc(Oc2ccc(NC(=O)Nc3ccc(Cl)c(C(F)(F)F)c3)cc2)ccn1 [sorafenib] + CCN(CC)CCCCNc1ncc2cc(-c3cc(OC)cc(OC)c3)c(NC(=O)NC(C)(C)C)nc2n1 [PD173074] (first compound 0.4 µM, partner dose 0.1 µM) | 83.7%
CO[C@H]1C[C@@H]2CC[C@@H](C)[C@@](O)(O2)C(=O)C(=O)N2CCCC[C@H]2C(=O)O[C@H]([C@H](C)C[C@@H]2CC[C@@H](OCCO)[C@H](OC)C2)CC(=O)[C@H](C)/C=C(\C)[C@@H](O)[C@@H](OC)C(=O)[C@H](C)C[C@H](C)/C=C/C=C/C=C/1C [everolimus] + O=C1NC(=O)/C(=C/c2ccc(-c3ccc(F)cc3O)o2)S1 [AS252424] (first compound 0.02 µM, partner dose 1 µM) | 70.2%

test system: CBRC008 (line from a melanoma biopsy); assay: as above; conditions: library dose: low library concentration; 72 h

Compound | cleaved PARP positive nuclei fraction
Nc1ccn([C@@H]2O[C@H](CO)[C@@H](O)C2(F)F)c(=O)n1 [gemcitabine] + O=S(=O)(c1ccccc1)N(CC(F)(F)F)c1ccc(C(O)(C(F)(F)F)C(F)(F)F)cc1 [T0901317] (first compound 0.0004 µM, partner dose 1.4 µM) | 188%
Nc1ncn([C@H]2C[C@H](O)[C@@H](CO)O2)c(=O)n1 [decitabine] + O=C(Nc1ccccc1)c1cc([N+](=O)[O-])ccc1Cl [GW9662] (first compound 0.1 µM, partner dose 2 µM) | 166%
Nc1nc(F)nc2c1ncn2[C@@H]1O[C@H](CO)[C@@H](O)[C@@H]1O [fludarabine] + Cn1cc(/C=C2\C(=O)Nc3cccnc32)c2ccccc21 [GW441756] (first compound 0.2 µM, partner dose 0.4 µM) | 32.2%
Nc1ccn([C@@H]2O[C@H](CO)[C@@H](O)C2(F)F)c(=O)n1 [gemcitabine] + CCN(CC)CCCCNc1ncc2cc(-c3cc(OC)cc(OC)c3)c(NC(=O)NC(C)(C)C)nc2n1 [PD173074] (first compound 0.0004 µM, partner dose 0.1 µM) | 253%
CCCS(=O)(=O)Nc1ccc(F)c(C(=O)c2c[nH]c3ncc(Cl)cc23)c1F + COc1ccc(COc2ccc(Cc3cnc(N)nc3N)cc2OC)cc1 [GW2580] (first compound 0.08 µM, partner dose 1 µM) | 36.5%
Nc1ccn([C@@H]2O[C@H](CO)[C@@H](O)C2(F)F)c(=O)n1 [gemcitabine] + CCc1ccc(CCOc2ccc(CC3SC(=O)NC3=O)cc2)nc1 [pioglitazone] (first compound 0.0004 µM, partner dose 2 µM) | 93.3%
Nc1ncn([C@H]2C[C@H](O)[C@@H](CO)O2)c(=O)n1 [decitabine] + Oc1cc(-c2nc(-c3ccccc3)[nH]c2-c2ccncc2)ccc1Cl [L779450] (first compound 0.1 µM, partner dose 0.2 µM) | 188%
CNC(=O)c1cc(Oc2ccc(NC(=O)Nc3ccc(Cl)c(C(F)(F)F)c3)cc2)ccn1 [sorafenib] + Cc1cc([N+](=O)[O-])ccc1NS(=O)(=O)c1cc(Cl)ccc1Cl [FH535] (first compound 0.4 µM, partner dose 1 µM) | 899%
O=C(O)c1ccc2c(c1)nc(Nc1cccc(Cl)c1)c1ccncc12 + N#Cc1c(O)c2c(-c3ccc(-c4ccccc4O)cc3)csc2[nH]c1=O [A769662] (first compound 0.4 µM, partner dose 2 µM) | 80.3%
Nc1ccn([C@@H]2O[C@H](CO)[C@@H](O)C2(F)F)c(=O)n1 [gemcitabine] + COc1ccc(COc2ccc(Cc3cnc(N)nc3N)cc2OC)cc1 [GW2580] (first compound 0.0004 µM, partner dose 1 µM) | 92.8%
Nc1ncn([C@H]2C[C@H](O)[C@@H](CO)O2)c(=O)n1 [decitabine] + O=C1NC(=O)/C(=C/c2ccc(-c3ccc(F)cc3O)o2)S1 [AS252424] (first compound 0.1 µM, partner dose 1 µM) | 56.4%
CCCS(=O)(=O)Nc1ccc(F)c(C(=O)c2c[nH]c3ncc(Cl)cc23)c1F + Cn1cc(/C=C2\C(=O)Nc3cccnc32)c2ccccc21 [GW441756] (first compound 0.08 µM, partner dose 0.4 µM) | 125%
Cc1cc(Nc2cc(N3CCN(C)CC3)nc(/C=C/c3ccccc3)n2)n[nH]1 + O=c1cc(-c2cccc3c2Sc2ccccc2S3)oc(N2CCOCC2)c1 [KU55933] (first compound 0.04 µM, partner dose 1 µM) | 84.7%
Cn1c(=O)n(-c2ccc(C(C)(C)C#N)cc2)c2c3cc(-c4cnc5ccccc5c4)ccc3ncc21 + COc1cc2ncnc(Nc3ccc(Oc4ccccc4)cc3)c2cc1OC [SrcI1] (first compound 0.004 µM, partner dose 2 µM) | 111%
Cc1cc(Nc2cc(N3CCN(C)CC3)nc(/C=C/c3ccccc3)n2)n[nH]1 + O=S(=O)(c1ccccc1)N(CC(F)(F)F)c1ccc(C(O)(C(F)(F)F)C(F)(F)F)cc1 [T0901317] (first compound 0.04 µM, partner dose 1.4 µM) | 167%
CCCS(=O)(=O)Nc1ccc(F)c(C(=O)c2c[nH]c3ncc(Cl)cc23)c1F + O=C1NC(=O)/C(=C/c2ccc(-c3ccc(F)cc3O)o2)S1 [AS252424] (first compound 0.08 µM, partner dose 1 µM) | 216%
Cn1c(=O)n(-c2ccc(C(C)(C)C#N)cc2)c2c3cc(-c4cnc5ccccc5c4)ccc3ncc21 + CC(C)CCN1c2nc(Nc3cc(F)c(O)c(F)c3)ncc2N(C)C(=O)C1C [BID1870] (first compound 0.004 µM, partner dose 0.2 µM) | 33.7%
CN1CCN(c2ccc3nc(-c4c(N)c5c(F)cccc5[nH]c4=O)[nH]c3c2)CC1 [Dovitinib] + Oc1cc(-c2nc(-c3ccccc3)[nH]c2-c2ccncc2)ccc1Cl [L779450] (first compound 0.1 µM, partner dose 0.2 µM) | 34.3%
Nc1nc(F)nc2c1ncn2[C@@H]1O[C@H](CO)[C@@H](O)[C@@H]1O [fludarabine] + COc1cc(N2CCC(N3CCN(C)CC3)CC2)ccc1Nc1ncc(Cl)c(Nc2ccccc2S(=O)(=O)C(C)C)n1 [NVP-TAE684] (first compound 0.2 µM, partner dose 0.08 µM) | 122%
Nc1ncn([C@H]2C[C@H](O)[C@@H](CO)O2)c(=O)n1 [decitabine] + COc1ccc(-c2ccc3c(N4CCOCC4)nc(N4C[C@@H](C)O[C@@H](C)C4)nc3n2)cc1CO [KU0063794] (first compound 0.1 µM, partner dose 0.02 µM) | 139%
CCCS(=O)(=O)Nc1ccc(F)c(C(=O)c2c[nH]c3ncc(Cl)cc23)c1F + Oc1cc(-c2nc(-c3ccccc3)[nH]c2-c2ccncc2)ccc1Cl [L779450] (first compound 0.08 µM, partner dose 0.2 µM) | 32%
C=C(c1ccc(C(=O)O)cc1)c1cc2c(cc1C)C(C)(C)CCC2(C)C [Bexarotene] + CCCCCCCCCCCC1=C(O)C(=O)C=C(O)C1=O [Embelin] (first compound 2 µM, partner dose 1.2 µM) | 167%
O=C(O)c1ccc2c(c1)nc(Nc1cccc(Cl)c1)c1ccncc12 + Oc1nc(-c2ccc(C(F)(F)F)cc2)nc2c1CSCC2 [XAV939] (first compound 0.4 µM, partner dose 2 µM) | 34.5%

2 entries from above in another layout.

| Compound | cleaved PARP positive nuclei fraction |
| --- | --- |
| CCCS(=O)(=O)Nc1ccc(F)c(C(=O)c2c[nH]c3ncc(Cl)cc23)c1F + Cn1cc(/C=C2\C(=O)Nc3cccnc32)c2ccccc21 [GW441756] (first compound 0.08 µM, partner dose 0.4 µM) | 125% |
| Cc1cc(Nc2cc(N3CCN(C)CC3)nc(/C=C/c3ccccc3)n2)n[nH]1 + O=S(=O)(c1ccccc1)N(CC(F)(F)F)c1ccc(C(O)(C(F)(F)F)C(F)(F)F)cc1 [T0901317] (first compound 0.04 µM, partner dose 1.4 µM) | 167% |
